# Reference: PubChem BioAssay (NCATS)
# Values joined by “and” are separate entries in the source; they are usually repeats but may differ in a detail not shown here. Identical values can stand only once. Some of the results follow. Further columns of the screen follow, without active or inactive calls. For some assays here: Compounds called inactive in the main read-out are mostly missing here. For some assays here: Potencies come from curve fits of mixed quality, noted in brackets.
# What was measured:
# [1] = S16 Schwann cell PMP22 intronic element beta-lactamase assay (AID 624044); details: S16 rat Schwann cells, PMP22 element beta-lactamase FRET, 24 h
# In short: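 Beta-lactamase reporter under a PMP22 intronic regulatory element in stable S16 rat Schwann cells; 24 h compound exposure. 460 nm blue signal normalized between DMSO (0%) and potassium clavulanate, with 535 nm FRET tracking viability; curves classed by r2 and response.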
# [2] = qHTS drug screen for cell cycle checkpoint inhibitors in PARPi-resistant BRCA-mutant ovarian cancer cell lines. (AID 1963452); details: PEO1/OlaR viability, CellTiter-Glo luminescence, 96 h
# In short: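 PEO1, PEO4 and PEO1/OlaR ovarian cancer cells, 600 per well, exposed 96 h at 37C to a dilution series. Viability read by CellTiter-Glo luminescence, normalized to DMSO and empty wells; activity summarized as Z-AUC.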
# [3] = qHTS assay for small molecule antagonists of peroxisome proliferator-activated receptor delta signaling (AID 588535); details: HEK293T PPARd-UAS-bla, beta-lactamase FRET ratio, 18 h; 460 nm channel;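 also: cells co-treated with a PPAR-delta agonist as stimulator during compound exposure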
# In short: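 Titrations were run on PPAR-delta-UAS-bla HEK293T cells in charcoal/dextran-stripped serum, incubated 18 h at 37 C. CCF4 fluorescence (460/530 nm) after 2 h RT; Hill equation yields IC50 and maximal response.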
# [4] = qHTS assay for small molecule antagonists of peroxisome proliferator-activated receptor gamma signaling (AID 588537); details: HEK293 PPARg-UAS-bla, beta-lactamase ratio, antagonist mode; measured here: W460 blue channel
# In short: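 Antagonist-mode β-lactamase reporter screen run as a titration series. HEK293 PPARγ-UAS-bla cells are stimulated with rosiglitazone (50 nM final) for 16 h, then CCF4 is read at 460/530 nm. Data are scaled between DMSO and rosiglitazone and fitted to the Hill equation.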
# [5] = qHTS assay for small molecule agonists of retinoid X receptor alpha signaling (AID 588544); details: HEK293T RXRa-UAS-bla, beta-lactamase reporter, 18 h; 530 nm emission
# [6] = qHTS assay for small molecule antagonists of retinoid X receptor alpha signaling (AID 588546); details: HEK293T RXRa-UAS-bla, beta-lactamase ratio, antagonist mode; measured here: W530 green channel, cytotoxicity proxy;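 also: cells stimulated with 9-cis-retinoic acid as agonist; % is scaled to controls: 0 for no effect and ±100 for the full control effect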
# In short: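 Beta-lactamase reporter inhibition, read as CCF4 fluorescence ratio (ex 405, em 460/530 nm) after 2 h at RT. HEK293T UAS-bla cells, 2500/well, were stimulated with 9-cis-RA at 500 or 100 nM final alongside test compound for 18 h at 37 C.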
# [7] = qHTS for identification of novel therapeutic agents for treatment of microphthalmiaassociated transcription factor (MiT) renal cell carcinoma (RCC) (AID 1963991); details: CellTiter-Glo, 48 h; for z-score: stronger effect = lower value
# In short: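 Curves over 11 concentrations were fitted to CellTiter-Glo luminescence, scaled between empty wells (0%) and DMSO (100%) viability. Cells were UOK109, UOK124 and UOK145 TFE3-fusion RCC lines at 500/well, exposed 48 hours at 37 C.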
# [8] = measured here: 460 nm blue channel
# [9] = measured here: PEO1 parental viability
# [10] = TFE3-RCC UOK109 viability, measured here: UOK109 Z-AUC
# [11] = TFE3-RCC viability, measured here: UOK124 Z-AUC
# [12] = TFE3-RCC viability, measured here: UOK124 cell viability
# [13] = TFE3-RCC viability, measured here: UOK145 Z-AUC
# [14] = TFE3-RCC viability, measured here: UOK145 cell viability
Compound,"AC50 [1, 8]","AC50 [2, 9]",AC50 ([2]; measured here: PEO4 viability),max response [3] [%],AC50 [4],max response [5] [%],max response [6],"z-score [7, 10]","z-score [7, 11]","AC50 [7, 12]","z-score [7, 13]",AC50 ([1]; measured here: 530 nm viability channel),"AC50 [7, 14]"
C=C1CCC2[C@](C)(CO)C(O)CC[C@]2(C)C1C/C=C1/C(=O)OCC1O (stereo partly specified),"5.62 µM [falling, full curve, poor fit]","12.3 µM [falling, partial curve]","12.3 µM [falling, partial curve]",–,–,–,–,–,–,–,–,–,–
N=C(N)c1ccc(OCCCCCOc2ccc(C(=N)N)cc2)cc1,–,"11 µM [falling, partial curve, poor fit]","13.8 µM [falling, partial curve]",-1.66,"63.1 µM [rising, single point]",15.6,5.27% and 5.77%,-0.143,0.217,"20.9 µM [falling, partial curve]",0.0638,–,–
CC[C@]1(O)C[C@H]2CN(CCc3c([nH]c4ccccc34)[C@@](C(=O)OC)(c3cc4c(cc3OC)N(C=O)[C@H]3[C@@](O)(C(=O)OC)[C@H](OC(C)=O)[C@]5(CC)C=CCN6CC[C@]43[C@@H]65)C2)C1,"0.501 µM [falling, full curve]","0.0616 µM [falling, full curve, poor fit]","0.0977 µM [falling, full curve, poor fit]",–,–,–,–,–,–,"0.0118 µM [falling, full curve]",–,"0.282 µM [rising, full curve]","0.0526 µM [falling, full curve]"
C=CC(=O)N1CCC[C@@H](n2nc(-c3ccc(Oc4ccccc4)cc3)c3c(N)ncnc32)C1,–,"19.5 µM [falling, partial curve]","19.5 µM [falling, single point]",–,–,–,–,-1.04,-0.345,"23.5 µM [falling, partial curve]",0.486,–,"23.5 µM [falling, partial curve]"
